The text below walks through data of patent US7541467B2, “Fluorescent zinc ion sensor” (Sekisui Medical Co., Ltd., priority 2004, dated 2009).

The series is described as follows: Fluorescent responses in the presence of various metal ions.

As for `c1ccc2nc(CN(CCN(Cc3ccc4ccccc4n3)Cc3ccc4ccccc4n3)Cc3ccc4ccccc4n3)ccc2c1` [TQEN, N,N,N′,N′-tetrakis(2-quinolylmethyl)ethylenediamine], the “effect of copper, cobalt, cadmium, silver and iron ions on fluorescence emission with zinc” value (1 equivalent of copper, cobalt, cadmium or silver ions, excess amount of iron ions) is “inhibited fluorescence emission”. In addition, where the note is “metal ions other than zinc and cadmium”, the “effect of other metal ions on fluorescence” value is listed as “almost no effect”.
